Data reported in PubChem BioAssay (EPA / NIEHS).
Only results without a clear call are listed here; the source files them as inconclusive. The calls were made as follows: active = hit-call score of the fitted dose curve at least 0.9, where 1 is the maximum; inconclusive = response in the unintended direction; inactive = score below 0.9.

Chains of the proteins cited; added tags and fusions are not shown.
UniProt Q13133, whole entry: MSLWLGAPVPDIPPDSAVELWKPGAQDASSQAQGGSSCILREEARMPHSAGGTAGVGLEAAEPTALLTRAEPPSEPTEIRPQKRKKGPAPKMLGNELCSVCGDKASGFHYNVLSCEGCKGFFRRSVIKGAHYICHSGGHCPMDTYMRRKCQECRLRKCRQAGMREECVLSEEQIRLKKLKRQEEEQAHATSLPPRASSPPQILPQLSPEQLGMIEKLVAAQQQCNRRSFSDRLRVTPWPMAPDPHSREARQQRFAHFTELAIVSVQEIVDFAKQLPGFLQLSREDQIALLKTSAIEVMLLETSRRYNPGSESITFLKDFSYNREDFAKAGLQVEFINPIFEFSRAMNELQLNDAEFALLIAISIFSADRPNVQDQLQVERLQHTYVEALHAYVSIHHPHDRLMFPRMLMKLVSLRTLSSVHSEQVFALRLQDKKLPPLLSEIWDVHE
UniProt Q03181, whole entry: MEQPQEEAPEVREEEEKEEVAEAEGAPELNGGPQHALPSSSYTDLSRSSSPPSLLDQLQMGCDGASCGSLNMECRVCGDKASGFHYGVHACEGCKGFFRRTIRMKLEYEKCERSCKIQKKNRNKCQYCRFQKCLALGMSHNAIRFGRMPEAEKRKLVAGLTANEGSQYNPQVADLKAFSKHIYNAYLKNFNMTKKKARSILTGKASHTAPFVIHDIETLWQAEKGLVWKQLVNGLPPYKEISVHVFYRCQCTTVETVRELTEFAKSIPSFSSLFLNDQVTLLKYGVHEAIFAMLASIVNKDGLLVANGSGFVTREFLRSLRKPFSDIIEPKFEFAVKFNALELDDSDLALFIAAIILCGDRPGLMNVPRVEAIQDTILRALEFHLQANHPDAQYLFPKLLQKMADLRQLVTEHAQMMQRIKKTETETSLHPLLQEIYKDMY
UniProt P04798, whole entry: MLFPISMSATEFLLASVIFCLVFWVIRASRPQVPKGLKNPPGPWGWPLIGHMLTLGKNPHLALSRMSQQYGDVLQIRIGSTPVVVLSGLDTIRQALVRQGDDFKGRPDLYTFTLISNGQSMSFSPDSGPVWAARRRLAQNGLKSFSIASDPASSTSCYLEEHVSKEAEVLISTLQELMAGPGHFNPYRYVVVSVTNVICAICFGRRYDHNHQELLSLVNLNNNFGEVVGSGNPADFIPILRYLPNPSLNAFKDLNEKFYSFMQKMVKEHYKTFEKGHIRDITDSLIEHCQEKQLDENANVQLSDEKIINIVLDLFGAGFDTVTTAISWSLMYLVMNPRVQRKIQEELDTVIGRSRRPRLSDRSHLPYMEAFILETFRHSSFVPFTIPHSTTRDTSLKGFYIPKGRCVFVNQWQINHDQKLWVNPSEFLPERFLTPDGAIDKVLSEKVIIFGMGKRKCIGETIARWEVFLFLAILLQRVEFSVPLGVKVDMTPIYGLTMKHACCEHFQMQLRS
UniProt P14780, whole entry: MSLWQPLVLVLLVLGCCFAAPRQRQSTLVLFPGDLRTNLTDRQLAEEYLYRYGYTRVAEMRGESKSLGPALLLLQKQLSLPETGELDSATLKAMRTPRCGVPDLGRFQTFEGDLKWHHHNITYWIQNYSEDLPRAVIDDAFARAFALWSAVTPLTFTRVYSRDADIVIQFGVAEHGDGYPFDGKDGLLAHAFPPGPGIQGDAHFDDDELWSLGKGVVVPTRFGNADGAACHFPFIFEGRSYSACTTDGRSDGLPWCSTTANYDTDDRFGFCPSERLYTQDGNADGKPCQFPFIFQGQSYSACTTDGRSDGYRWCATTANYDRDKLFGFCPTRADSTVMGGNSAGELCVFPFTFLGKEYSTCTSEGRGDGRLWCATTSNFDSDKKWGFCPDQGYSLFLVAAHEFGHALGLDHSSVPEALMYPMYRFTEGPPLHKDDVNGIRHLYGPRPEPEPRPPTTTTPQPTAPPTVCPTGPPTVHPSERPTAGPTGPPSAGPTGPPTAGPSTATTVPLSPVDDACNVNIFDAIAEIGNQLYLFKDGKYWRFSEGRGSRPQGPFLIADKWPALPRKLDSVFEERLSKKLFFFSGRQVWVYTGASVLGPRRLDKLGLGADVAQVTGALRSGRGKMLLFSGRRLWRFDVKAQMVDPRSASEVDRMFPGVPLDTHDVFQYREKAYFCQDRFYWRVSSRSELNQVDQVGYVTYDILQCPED
UniProt P43378, whole entry: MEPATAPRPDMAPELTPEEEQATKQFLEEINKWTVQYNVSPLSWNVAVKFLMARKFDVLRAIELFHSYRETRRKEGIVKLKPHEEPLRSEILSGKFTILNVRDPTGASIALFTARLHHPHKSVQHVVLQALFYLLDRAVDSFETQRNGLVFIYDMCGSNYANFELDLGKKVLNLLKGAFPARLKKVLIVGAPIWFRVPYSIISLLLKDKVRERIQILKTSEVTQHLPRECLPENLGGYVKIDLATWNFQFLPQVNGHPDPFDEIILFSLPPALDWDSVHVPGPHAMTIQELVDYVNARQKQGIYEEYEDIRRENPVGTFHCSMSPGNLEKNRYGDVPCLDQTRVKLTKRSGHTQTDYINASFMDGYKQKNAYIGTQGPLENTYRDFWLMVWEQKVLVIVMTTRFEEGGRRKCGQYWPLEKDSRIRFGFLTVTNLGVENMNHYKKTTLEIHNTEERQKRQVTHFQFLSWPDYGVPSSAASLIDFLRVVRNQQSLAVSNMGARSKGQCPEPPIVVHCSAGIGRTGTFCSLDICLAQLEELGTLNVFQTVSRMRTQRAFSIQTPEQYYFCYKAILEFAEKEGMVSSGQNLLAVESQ
UniProt P20789, whole entry: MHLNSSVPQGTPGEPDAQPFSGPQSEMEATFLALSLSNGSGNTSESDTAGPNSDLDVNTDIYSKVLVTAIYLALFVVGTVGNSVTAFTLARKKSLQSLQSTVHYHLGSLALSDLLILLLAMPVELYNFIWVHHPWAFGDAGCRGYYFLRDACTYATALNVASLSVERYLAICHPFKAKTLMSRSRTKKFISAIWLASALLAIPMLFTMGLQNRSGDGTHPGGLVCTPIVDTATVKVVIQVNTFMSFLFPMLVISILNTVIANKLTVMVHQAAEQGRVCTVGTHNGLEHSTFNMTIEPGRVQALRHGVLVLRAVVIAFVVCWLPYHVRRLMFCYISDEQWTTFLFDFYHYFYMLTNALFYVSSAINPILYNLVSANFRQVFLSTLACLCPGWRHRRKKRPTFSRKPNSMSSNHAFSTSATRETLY
UniProt P19793, whole entry: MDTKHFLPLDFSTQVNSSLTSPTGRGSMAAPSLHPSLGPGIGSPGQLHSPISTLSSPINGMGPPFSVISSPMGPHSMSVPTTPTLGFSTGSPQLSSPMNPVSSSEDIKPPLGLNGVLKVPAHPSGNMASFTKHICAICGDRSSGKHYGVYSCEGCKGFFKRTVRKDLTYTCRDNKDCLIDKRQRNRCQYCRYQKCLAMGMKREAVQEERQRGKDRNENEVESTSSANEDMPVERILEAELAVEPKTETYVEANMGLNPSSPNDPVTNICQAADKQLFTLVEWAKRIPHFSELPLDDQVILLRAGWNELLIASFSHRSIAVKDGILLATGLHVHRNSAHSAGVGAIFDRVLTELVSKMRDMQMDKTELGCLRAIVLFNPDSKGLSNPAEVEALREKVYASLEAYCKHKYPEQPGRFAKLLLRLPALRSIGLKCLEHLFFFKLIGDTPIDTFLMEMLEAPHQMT
UniProt P10276, whole entry: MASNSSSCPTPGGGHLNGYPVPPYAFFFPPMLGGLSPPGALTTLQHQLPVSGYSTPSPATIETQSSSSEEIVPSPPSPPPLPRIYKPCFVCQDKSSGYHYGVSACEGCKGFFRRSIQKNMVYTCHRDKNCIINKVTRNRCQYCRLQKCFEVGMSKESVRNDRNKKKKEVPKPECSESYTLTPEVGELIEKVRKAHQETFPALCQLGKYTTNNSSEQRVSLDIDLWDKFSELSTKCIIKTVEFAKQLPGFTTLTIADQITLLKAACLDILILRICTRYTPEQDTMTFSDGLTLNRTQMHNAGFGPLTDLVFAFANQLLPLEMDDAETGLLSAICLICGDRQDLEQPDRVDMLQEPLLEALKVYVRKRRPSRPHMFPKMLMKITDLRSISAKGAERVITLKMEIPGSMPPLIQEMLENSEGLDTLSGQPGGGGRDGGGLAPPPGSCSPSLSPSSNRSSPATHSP
UniProt P28702, whole entry: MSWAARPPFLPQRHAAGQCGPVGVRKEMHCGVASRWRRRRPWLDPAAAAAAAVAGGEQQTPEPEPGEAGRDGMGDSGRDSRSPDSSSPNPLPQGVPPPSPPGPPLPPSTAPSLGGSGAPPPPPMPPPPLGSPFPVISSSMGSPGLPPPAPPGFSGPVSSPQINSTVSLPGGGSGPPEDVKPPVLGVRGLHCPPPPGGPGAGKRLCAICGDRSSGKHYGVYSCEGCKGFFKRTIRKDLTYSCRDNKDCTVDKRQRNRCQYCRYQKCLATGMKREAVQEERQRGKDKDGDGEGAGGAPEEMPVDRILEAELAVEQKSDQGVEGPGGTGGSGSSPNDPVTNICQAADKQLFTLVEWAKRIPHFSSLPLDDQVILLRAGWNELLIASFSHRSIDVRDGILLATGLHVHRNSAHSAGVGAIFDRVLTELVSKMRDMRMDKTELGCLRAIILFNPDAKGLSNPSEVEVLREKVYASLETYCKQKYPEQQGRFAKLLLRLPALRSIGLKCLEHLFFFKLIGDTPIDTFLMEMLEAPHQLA

Experiments:
[1] = ATG_M_19_TRANS: Attagene TRANS-FACTORIAL HepG2 Assay for M19 Transcription Factor (Internal Marker) (AID 2282974); settings: HepG2 Attagene TRANS-FACTORIAL M19 internal marker reporter
In short: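 Background-control readout: after 24 h chemical exposure of transfected HepG2 carrying GAL4-driven reporter units, RNA was reverse-transcribed, amplified, fluorescently labeled and sized by capillary electrophoresis; gain-of-signal fit against DMSO.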

[2] = target: Oxysterols receptor LXR-alpha (Homo sapiens) (UniProt Q13133); assay: ATG_LXRa_TRANS: Attagene TRANS-FACTORIAL HepG2 Assay for human Liver X Receptor alpha (LXRa) (AID 2282980); settings: HepG2 Attagene TRANS reporter, LXRa transactivation
In short: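 Transfect HepG2 with GAL4-UAS multiplex reporter constructs (TRANS format, chimeric receptor-GAL4); treat 24 h; extract RNA, reverse-transcribe, PCR-amplify, FAM-label, HpaI-digest; resolve fragments by capillary electrophoresis. Upward response vs DMSO.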

[3] = target: human Peroxisome Proliferator-activated Receptor delta (PPARd), PPARD (gene 5467) (UniProt Q03181); assay: ATG_PPARd_TRANS: Attagene TRANS-FACTORIAL HepG2 Assay for human Peroxisome Proliferator-activated Receptor delta (PPARd) (AID 2283002)
In short: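 Cell-based TRANS reporter: HepG2, transient MRTU transfection, 24 h exposure. Readout = reporter mRNA (RT-PCR/CE, 6-FAM). Gain-of-signal fit vs DMSO control.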

[4] = target: human CYP1A1, CYP1A1 (gene 1543) (UniProt P04798); assay: NVS_ADME_hCYP1A1: NovaScreen (NVS) CYP450-related Enzyme Activity (ADME) Assay for human CYP1A1 (AID 2283100)
In short: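 Recombinant hCYP1A1 + fluorogenic substrate, cell-free; 1 h; fluorescence read. Single-point 10 uM (duplicate) → concentration series, max 20 uM. Acetonitrile negative control.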

[5] = target: human Matrix Metalloproteinase-9 (MMP9), MMP9 (gene 4318) (UniProt P14780); assay: NVS_ENZ_hMMP9: NovaScreen (NVS) Enzymatic Assay for human Matrix Metalloproteinase-9 (MMP9) (AID 2283190);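 also: cell-free recombinant MMP9 protease activity read by fluorescent substrate signal; active means inhibition seen as loss of fluorescence signal versus DMSO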
In short: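 Screening concentration 25 uM, duplicate wells, then dose series for confirmation. Cell-free enzymatic reaction measured by fluorescence intensity 1 h post-dosing; decreased signal versus DMSO taken as activity.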

[6] = target: human Protein Tyrosine Phosphatase Non-receptor Type 9 (PTPN9), PTPN9 (gene 5780) (UniProt P43378); assay: NVS_ENZ_hPTPN9: NovaScreen (NVS) Enzymatic Assay for human Protein Tyrosine Phosphatase Non-receptor Type 9 (PTPN9) (AID 2283209)
In short: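 Sf9-expressed enzyme in a cell-free assay, fluorescence read 1.33 h after dosing with mobility-shift separation of substrate and product. Tested at 25 uM in duplicate, then up to 50 uM; signal loss versus DMSO.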

[7] = target: rat Neurotensin Receptor (NTS), Ntsr1 (gene 366274) (UniProt P20789); assay: NVS_GPCR_rNTS: NovaScreen (NVS) G Protein-Coupled Receptor Assay for rat Neurotensin Receptor (NTS) (AID 2283308)
In short: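 Single-point duplicates at 25 uM, then concentration series to 50 uM max for hits, measured radioligand displacement on rat forebrain membrane preparations. Bound label counted by filtration scintillation at 1 h; signal loss relative to DMSO fitted.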

[8] = target: Retinoic acid receptor RXR-alpha (Homo sapiens) (UniProt P19793); assay: OT_NURR1_NURR1RXRa_1440: Odyssey Thera (OT) 24-hour HEK293T Protein Complementation Assay for Nurr1/retinoid X receptor (RXR) (AID 2283386)
In short: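 Gain in fluorescence, fitted relative to DMSO, reflects Nurr1–RXRα association in HEK293T cells after 24 h dosing. Bait and prey are each linked to a reporter-protein fragment that reassembles on interaction.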

[9] = ACEA_AR_agonist_AUC_viability: ACEA Biosciences xCELLigence Real-Time Cell Analysis on Androgen Receptor Agonism for Viability (AID 2283775);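 also: viability read 80 hours after compound addition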
In short: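 22Rv1 cells; impedance growth kinetics; 8-pt 1:4 dilutions from 100 uM top final, ≤0.5% DMSO; n = 2; 80 h read; AUC viability, loss-of-signal vs DMSO.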

[10] = ACEA_AR_antagonist_AUC_viability: ACEA Biosciences xCELLigence Real-Time Cell Analysis on Androgen Receptor Antagonism for Viability (AID 2283776);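 also: 22Rv1 human prostate cancer cells growing on impedance electrode plates; area under impedance growth curve at 80 h after dosing as viability; hits lower the growth signal relative to DMSO meaning cytotoxicity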
In short: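 Viability endpoint from label-free cell-index monitoring: 22Rv1 cultures treated with an eight-point 1:4 dilution series starting at 100 uM final, AUC at 80 h fitted against DMSO.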

[11] = ACEA_ER_AUC_viability: ACEA Biosciences xCELLigence Real-Time Cell Analysis on Estrogen Receptor Agonism for Viability (AID 2283782);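 also: hit means loss of impedance signal meaning reduced cell growth or viability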
In short: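 Viability endpoint: reduced impedance area under the curve relative to DMSO, recorded by real-time electrode sensing over ~80 h of continuous exposure. Duplicate plates of T47D in hormone-depleted medium; eight concentrations, 1:4 dilutions, 100 uM maximum.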

[12] = target: Retinoic acid receptor alpha (Homo sapiens) (UniProt P10276); assay: ATG_RARa_TRANS: Attagene TRANS-FACTORIAL HepG2 Assay for human Retinoic Acid Receptor alpha (RARa) (AID 2283005)
In short: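 Reporter transcripts, measured by RT-PCR with fluorescent labeling and capillary electrophoresis after 24 h dosing, reflect activity of an exogenous human RARa–GAL4 fusion in transiently transfected HepG2. Fitted for increase relative to DMSO.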

[13] = target: human Retinoid X Receptor beta (RXRb), RXRB (gene 6257) (UniProt P28702); assay: ATG_RXRb_TRANS: Attagene TRANS-FACTORIAL HepG2 Assay for human Retinoid X Receptor beta (RXRb) (AID 2283013)
In short: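 Readout is reporter transcript induction after 24 h dosing. It is measured by RT-PCR of total RNA followed by fluorescent capillary electrophoresis. HepG2 liver cells carry transfected multiple reporter units driven by an exogenous RXRb-Gal4 fusion; activity is relative to DMSO.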

[14] = ATG_GAL4_TRANS: Attagene TRANS-FACTORIAL HepG2 Assay for GAL4 (Internal Marker) (AID 2282976); settings: HepG2 Attagene TRANS GAL4 internal marker reporter
In short: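 First, HepG2 cells were transfected with reporter units under GAL4-UAS control. Next, they were treated with chemical for 24 h. Finally, RNA was reverse-transcribed, PCR-amplified, FAM-labelled and resolved by capillary electrophoresis, with induction scored against DMSO.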

Measured: AC50

ClP(Cl)c1ccccc1
inconclusive: [1] | [2]

Cc1cccc([N+](=O)[O-])c1[N+](=O)[O-]
inconclusive: [3] 0.549 µM | [4] 0.391 µM | [5] 17.9 µM | [6] 17.9 µM | [7] 17.9 µM | [8] 7 µM | [9] 22.9 µM | [10] 7.09 µM | [11] 9.31 µM

O=C(Cl)OCCOC(=O)Cl
inconclusive: [2] | [12] | [13]

O=P(Cl)(Oc1ccccc1)Oc1ccccc1
inconclusive: [14] | [13]
